System: CHO-S cells
Experiment: Western blot analysis of PH20 expression in media and cells after transient expression
Assay type: cell-based, Chinese Hamster
Conditions: band at approximately 66 kDa
Experimental: The mutant PH20-HZ24 plasmids generated in Example 1 were transiently […] into CHO—S cells (derived from Chinese Hamster Ovary CHO K1 cells) using GeneJuice® (Novagen) according to the manufacturer's instructions. In short, the CHO—S cells were grown in CD CHO medium supplemented with L-glutamine. Prior to transfection, the CHO—S cells were plated in 6-well plates, with approximately 5×10^5 cells per well, and grown overnight at 37° C. with 5% CO2. The medium was then removed and the CHO—S cells were washed 2 times with 1 mL serum-free medium. GeneJuice® was mixed with serum-free media followed by the addition of 2 μg mutant-HZ24 DNA. After incubating at room temperature for 5-15 minutes, the GeneJuice®/DNA mixture was added dropwise to an individual well containing the washed CHO—S cells. After 4 hours, the medium was replaced with 1 mL CD-CHO medium supplemented with L-glutamine and the cells were incubated for 72 hours at 37° C. with 5% CO2. Following expression, the media and cells were harvested separately.
The mutant PH20-HZ24 plasmids generated in Example 1 were transiently […] into CHO—S cells using GeneJuice® (Novagen) according to the manufacturer's instructions. […]
In this example, following transient expression, as described in Example 2 above, the media and cells were harvested separately and analyzed for PH20 expression and solublility by Western blot analysis. Solubility of the C-terminus truncation mutants was determined by examining whether the expressed protein was present in the growth media or in the cells. […] Cells expressing these mutants were treated with phosphoinositol-phospholipase C (PI-PLC), which cleaves the GPI-anchor allowing the release of soluble protein into the media, and the presence of PH20 in the resulting media and cells was determined by Western blot analysis.
Non-reduced samples were run on a 4-20% Tris-Glycine gel and transferred to PVDF membrane using iBlot (Invitrogen). For the Western blot, rabbit anti-PH20 IgG (0.5 μg/mL) was used as the primary antibody and HRP-conjugated goat anti-rabbit IgG (0.1 ng/mL, Cat#DC03L, EMD) was used as the secondary antibody. Evidence of expression is determined by a band at approximately 66 kDa, corresponding to recombinant human PH20 hyaluronidase.

| Molecule | Protein Expression | Protein Expression (listed as ILFL) | Protein Expression (listed as VSIL) | Protein Expression (listed as SILF) | Protein Expression (listed as IVSI) |
| --- | --- | --- | --- | --- | --- |
| SPAM1-ILFL: C-terminally truncated human PH20, precursor 501 aa (SEQ ID NO:6), mature 466 aa (SEQ ID NO:58) (protein, listed as Homo sapiens, HuPH20 precursor 1-501; mature HuPH20 36-501) chain 1: MGVLKFKHIFFRSFVKSSGVSQIVFTFLLIPCCLTLNFRAPPVIPNVPFLWAWNAPSEFCLGKFDEPLDMSLFSFIGSPRINATGQGVTIFYVDRLGYYPYIDSITGVTVNGGIPQKISLQDHLDKAKKDITFYMPVDNLGMAVIDWEEWRPTWARNWKPKDVYKNRSIELVQQQNVQLSLTEATEKAKQEFEKAGKDFLVETIKLGKLLRPNHLWGYYLFPDCYNHHYKKPGYNGSCFNVEIKRNDDLSWLWNESTALYPSIYLNTQQSPVAATLYVRNRVREAIRVSKIPDAKSPLPVFAYTRIVFTDQVLKFLSQDELVYTFGETVALGASGIVIWGTLSIMRSMKSCLLLDNYMETILNPYIINVTLAAKMCSQVLCQEQGVCIRKNWNSSDYLHLNPDNFAIQLEKGGKFTVRGKPTLEDLEQFSEKFYCSCYSTLSCKEKADVKDTDAVDVCIADGVCIDAFLKPPMETEEPQIFYNASPSTLSATMFIVSILFL chain 2: LNFRAPPVIPNVPFLWAWNAPSEFCLGKFDEPLDMSLFSFIGSPRINATGQGVTIFYVDRLGYYPYIDSITGVTVNGGIPQKISLQDHLDKAKKDITFYMPVDNLGMAVIDWEEWRPTWARNWKPKDVYKNRSIELVQQQNVQLSLTEATEKAKQEFEKAGKDFLVETIKLGKLLRPNHLWGYYLFPDCYNHHYKKPGYNGSCFNVEIKRNDDLSWLWNESTALYPSIYLNTQQSPVAATLYVRNRVREAIRVSKIPDAKSPLPVFAYTRIVFTDQVLKFLSQDELVYTFGETVALGASGIVIWGTLSIMRSMKSCLLLDNYMETILNPYIINVTLAAKMCSQVLCQEQGVCIRKNWNSSDYLHLNPDNFAIQLEKGGKFTVRGKPTLEDLEQFSEKFYCSCYSTLSCKEKADVKDTDAVDVCIADGVCIDAFLKPPMETEEPQIFYNASPSTLSATMFIVSILFL | WEAK | low expression |  |  |  |
| SPAM1-VSIL: C-terminally truncated human PH20, precursor 499 aa (SEQ ID NO:7), mature 464 aa (SEQ ID NO:59) (protein, listed as Homo sapiens, mature HuPH20 36-499) LNFRAPPVIPNVPFLWAWNAPSEFCLGKFDEPLDMSLFSFIGSPRINATGQGVTIFYVDRLGYYPYIDSITGVTVNGGIPQKISLQDHLDKAKKDITFYMPVDNLGMAVIDWEEWRPTWARNWKPKDVYKNRSIELVQQQNVQLSLTEATEKAKQEFEKAGKDFLVETIKLGKLLRPNHLWGYYLFPDCYNHHYKKPGYNGSCFNVEIKRNDDLSWLWNESTALYPSIYLNTQQSPVAATLYVRNRVREAIRVSKIPDAKSPLPVFAYTRIVFTDQVLKFLSQDELVYTFGETVALGASGIVIWGTLSIMRSMKSCLLLDNYMETILNPYIINVTLAAKMCSQVLCQEQGVCIRKNWNSSDYLHLNPDNFAIQLEKGGKFTVRGKPTLEDLEQFSEKFYCSCYSTLSCKEKADVKDTDAVDVCIADGVCIDAFLKPPMETEEPQIFYNASPSTLSATMFIVSIL | WEAK |  | low expression |  |  |
| SPAM1-SILF: C-terminally truncated human PH20, precursor 500 aa (SEQ ID NO:48), mature 465 aa (SEQ ID NO:100) (protein, listed as Homo sapiens, HuPH20 precursor 1-500; Mature HuPH20 36-500) chain 1: MGVLKFKHIFFRSFVKSSGVSQIVFTFLLIPCCLTLNFRAPPVIPNVPFLWAWNAPSEFCLGKFDEPLDMSLFSFIGSPRINATGQGVTIFYVDRLGYYPYIDSITGVTVNGGIPQKISLQDHLDKAKKDITFYMPVDNLGMAVIDWEEWRPTWARNWKPKDVYKNRSIELVQQQNVQLSLTEATEKAKQEFEKAGKDFLVETIKLGKLLRPNHLWGYYLFPDCYNHHYKKPGYNGSCFNVEIKRNDDLSWLWNESTALYPSIYLNTQQSPVAATLYVRNRVREAIRVSKIPDAKSPLPVFAYTRIVFTDQVLKFLSQDELVYTFGETVALGASGIVIWGTLSIMRSMKSCLLLDNYMETILNPYIINVTLAAKMCSQVLCQEQGVCIRKNWNSSDYLHLNPDNFAIQLEKGGKFTVRGKPTLEDLEQFSEKFYCSCYSTLSCKEKADVKDTDAVDVCIADGVCIDAFLKPPMETEEPQIFYNASPSTLSATMFIVSILF chain 2: LNFRAPPVIPNVPFLWAWNAPSEFCLGKFDEPLDMSLFSFIGSPRINATGQGVTIFYVDRLGYYPYIDSITGVTVNGGIPQKISLQDHLDKAKKDITFYMPVDNLGMAVIDWEEWRPTWARNWKPKDVYKNRSIELVQQQNVQLSLTEATEKAKQEFEKAGKDFLVETIKLGKLLRPNHLWGYYLFPDCYNHHYKKPGYNGSCFNVEIKRNDDLSWLWNESTALYPSIYLNTQQSPVAATLYVRNRVREAIRVSKIPDAKSPLPVFAYTRIVFTDQVLKFLSQDELVYTFGETVALGASGIVIWGTLSIMRSMKSCLLLDNYMETILNPYIINVTLAAKMCSQVLCQEQGVCIRKNWNSSDYLHLNPDNFAIQLEKGGKFTVRGKPTLEDLEQFSEKFYCSCYSTLSCKEKADVKDTDAVDVCIADGVCIDAFLKPPMETEEPQIFYNASPSTLSATMFIVSILF | WEAK |  |  | low expression |  |
| SPAM1-IVSI: C-terminally truncated human PH20, precursor 498 aa (SEQ ID NO:49), mature 463 aa (SEQ ID NO:101) (protein, listed as Homo sapiens, HuPH20 precursor 1-498; Mature HuPH20 36-498) chain 1: MGVLKFKHIFFRSFVKSSGVSQIVFTFLLIPCCLTLNFRAPPVIPNVPFLWAWNAPSEFCLGKFDEPLDMSLFSFIGSPRINATGQGVTIFYVDRLGYYPYIDSITGVTVNGGIPQKISLQDHLDKAKKDITFYMPVDNLGMAVIDWEEWRPTWARNWKPKDVYKNRSIELVQQQNVQLSLTEATEKAKQEFEKAGKDFLVETIKLGKLLRPNHLWGYYLFPDCYNHHYKKPGYNGSCFNVEIKRNDDLSWLWNESTALYPSIYLNTQQSPVAATLYVRNRVREAIRVSKIPDAKSPLPVFAYTRIVFTDQVLKFLSQDELVYTFGETVALGASGIVIWGTLSIMRSMKSCLLLDNYMETILNPYIINVTLAAKMCSQVLCQEQGVCIRKNWNSSDYLHLNPDNFAIQLEKGGKFTVRGKPTLEDLEQFSEKFYCSCYSTLSCKEKADVKDTDAVDVCIADGVCIDAFLKPPMETEEPQIFYNASPSTLSATMFIVSI chain 2: LNFRAPPVIPNVPFLWAWNAPSEFCLGKFDEPLDMSLFSFIGSPRINATGQGVTIFYVDRLGYYPYIDSITGVTVNGGIPQKISLQDHLDKAKKDITFYMPVDNLGMAVIDWEEWRPTWARNWKPKDVYKNRSIELVQQQNVQLSLTEATEKAKQEFEKAGKDFLVETIKLGKLLRPNHLWGYYLFPDCYNHHYKKPGYNGSCFNVEIKRNDDLSWLWNESTALYPSIYLNTQQSPVAATLYVRNRVREAIRVSKIPDAKSPLPVFAYTRIVFTDQVLKFLSQDELVYTFGETVALGASGIVIWGTLSIMRSMKSCLLLDNYMETILNPYIINVTLAAKMCSQVLCQEQGVCIRKNWNSSDYLHLNPDNFAIQLEKGGKFTVRGKPTLEDLEQFSEKFYCSCYSTLSCKEKADVKDTDAVDVCIADGVCIDAFLKPPMETEEPQIFYNASPSTLSATMFIVSI | WEAK |  |  |  | low expression |
| SPAM1-AFLK: C-terminally truncated human PH20, precursor 470 aa (SEQ ID NO:30), mature 435 aa (SEQ ID NO:82) (protein, listed as Homo sapiens, HuPH20 precursor 1-470) MGVLKFKHIFFRSFVKSSGVSQIVFTFLLIPCCLTLNFRAPPVIPNVPFLWAWNAPSEFCLGKFDEPLDMSLFSFIGSPRINATGQGVTIFYVDRLGYYPYIDSITGVTVNGGIPQKISLQDHLDKAKKDITFYMPVDNLGMAVIDWEEWRPTWARNWKPKDVYKNRSIELVQQQNVQLSLTEATEKAKQEFEKAGKDFLVETIKLGKLLRPNHLWGYYLFPDCYNHHYKKPGYNGSCFNVEIKRNDDLSWLWNESTALYPSIYLNTQQSPVAATLYVRNRVREAIRVSKIPDAKSPLPVFAYTRIVFTDQVLKFLSQDELVYTFGETVALGASGIVIWGTLSIMRSMKSCLLLDNYMETILNPYIINVTLAAKMCSQVLCQEQGVCIRKNWNSSDYLHLNPDNFAIQLEKGGKFTVRGKPTLEDLEQFSEKFYCSCYSTLSCKEKADVKDTDAVDVCIADGVCIDAFLK | YES |  |  |  |  |

— patent US9284543B2, “Neutral active soluble truncated PH20 polypeptides and uses thereof” (Halozyme, Inc., priority 2008, dated 2016)
